These are yes or no findings as the source states them, for the method shown. Some results given as binding are weak or reduced against the parent protein; the word gives no strength.
Target: T1, cow brain ferritin L subunit (cow (endogenous in brain)) (UniProt O46415)
T1 sequence: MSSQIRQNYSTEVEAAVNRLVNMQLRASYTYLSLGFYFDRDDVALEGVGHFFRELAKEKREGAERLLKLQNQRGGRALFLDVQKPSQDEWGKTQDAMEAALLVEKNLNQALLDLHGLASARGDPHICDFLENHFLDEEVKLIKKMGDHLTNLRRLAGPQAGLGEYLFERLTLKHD
Test: native gel or EMSA; 7% native PAGE, Coomassie stained, of purified ferritin whose H and L subunits assembled in the cells (E. coli co-expression or animal organ); subunits shown by 12% SDS-PAGE, SDS-CGE and Western blot

The chains behind the UniProt entries cited, without tags or fusion partners.
UniProt O46414: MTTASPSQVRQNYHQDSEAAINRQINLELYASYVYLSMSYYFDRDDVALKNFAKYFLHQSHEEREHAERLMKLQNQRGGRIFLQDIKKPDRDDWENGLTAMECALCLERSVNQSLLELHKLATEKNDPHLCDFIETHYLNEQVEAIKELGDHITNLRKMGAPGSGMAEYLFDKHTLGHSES

binding: binds
Substance: cow brain ferritin H subunit (from UniProt O46414 1-181)
